Hit rate of the full screen: of about 400,000 compounds, about 13,000 (3.2%) were called active. The inconclusive results got no clear call from the source; some entries with a clear call stand among them for comparison. The call rests on the fitted dose curve; in most records, active means well fitted cell-killing curve with a large enough effect; inconclusive means small, poorly fitted or top-dose-only effect, or effect the other way; inactive means flat fitted curve, though single readings scatter. Potencies beside an inconclusive call are fits to weak or partial responses and may not hold up.
Assay: qHTS assay for MDR1-selective chemotherapeutics: Primary screen using the drug-selected MDR subline cells KB-V1; further: nearly all actives have a fitted effect of over 60% in size
Conditions: KB-V1 MDR cells viability, CellTiter-Glo, 72 h; activity change, negative = cytotoxicity: at 46.1 µM (top of the series)
Method in brief: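 KB-V1 cells (P-gp-expressing MDR subline of KB-3-1) in phenol-red-free DMEM with 10% FBS were exposed to library compounds over a concentration series for 72 h at 37 degrees C. Viability read by CellTiter-Glo luminescence; concentration-effect curves fitted after normalization.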
On the % scale 0 is the no-effect control and ±100 the full control effect; potency means the concentration at half of the fitted maximal effect.

Compound	activity change, negative = cytotoxicity	Potency
O=C(CSc1nnc(NC(=O)C2CC(=O)N(c3ccccc3)C2)s1)NCc1ccco1 (configuration not stated)	inactive: 29.2%	
CC(C)NC(=O)N1CCC(N2CCN(Cc3ccc(F)cc3)C(=O)C2=O)CC1		inconclusive: 29.1 µM [rising, single point]
CCN(CC)S(=O)(=O)c1cccc(-c2n[nH]c(=S)n2/N=C/c2ccc(OC(F)F)cc2)c1		inconclusive: 13 µM [cytotoxic, partial curve, poor fit]
COc1cccc(NC(=O)COC(=O)c2ccccc2C(=O)N2CCN(c3ccccc3)CC2)c1		inconclusive: 9.2 µM [cytotoxic, partial curve]
COc1cccc(-c2cc(C(=O)N3CCN(C(c4ccccc4)c4ccccc4)CC3)no2)c1	inactive: 18.3%	
O=C(Nc1nnc(-c2ccc3c(c2)CCCC3)o1)c1ccccc1Cl		inconclusive: 20.6 µM [cytotoxic, single point]
COc1ccc(C(CNC(=O)c2cc(SC)ccc2Cl)N(C)C)cc1 (configuration not stated)	inactive: 2.67%	
CC(C)c1ccc(NC(=O)Nc2nc(C(N)COCc3ccccc3)cs2)cc1 (configuration not stated)		inconclusive: 25.9 µM [cytotoxic, single point]
CC(=O)c1ccc(S(=O)c2ccccc2)cc1 (configuration not stated)	inactive: -21%	
CCCCOc1ccc(C(=O)Nc2ccncc2)cc1		inconclusive: 1.64 µM [cytotoxic, full curve]
COc1ccc(-c2nc(N3CCCCCC3)sc2C(=O)c2ccccc2)cc1	inactive: 0%	
COC(=O)CN(c1nc(C)c(Cl)c(OC)n1)S(=O)(=O)c1ccc(C)cc1		active: 13 µM
CCc1ccc(C2CC(c3cccc(OC)c3)n3nc(N)nc3N2)cc1 (configuration not stated)	inactive: -23.4%	
O=C(c1ccc(Cl)c(Cl)c1)N1CCC(=O)N([C@H](COCc2ccc(Cl)cc2)Cc2ccccc2)CC1		active: 20.6 µM
Cc1cc(OC(C)C(=O)Nc2ccncc2)ccc1Cl (configuration not stated)		inconclusive: 9.2 µM [cytotoxic, partial curve]
COc1ccc(/C=N/NC(=O)C[n+]2ccccc2)c(OC)c1		inconclusive: 25.9 µM [rising, single point]
O=C(NCCc1ccccc1)c1ccnc(/C=N/O)c1	inactive: -32.4%	
NNc1nc(-c2ccccc2)c2cc(Br)ccc2n1	inactive: 2.52%	
CC1CC(C)CN(C(=O)c2ccc(Br)c(S(=O)(=O)N3CCOCC3)c2)C1 (configuration not stated)		inconclusive: 29.1 µM [cytotoxic, single point]
CCN1CCc2c(sc(NC(=O)c3cc4ccccc4cc3OC)c2C(N)=O)C1	inactive: -24.4%	
CCN(CC)c1ccc(CNc2ccc(Br)cn2)cc1		inconclusive: 29.1 µM [cytotoxic, single point]
Cc1cc(CNC(=O)Cc2ccc(F)cc2)c2ccccc2n1		inconclusive: 16.4 µM [cytotoxic, single point]
COc1ccc(N2C(=O)C3C4c5ccccc5C(C=Nc5ccc(C)cc5C)(c5ccccc54)C3C2=O)cc1 (configuration not stated)		inconclusive: 29.1 µM [cytotoxic, single point]
CC(C)(CNC(=O)c1ccc(-c2cccc(C(F)(F)F)c2)o1)N1CCOCC1		inconclusive: 14.6 µM [cytotoxic, partial curve, poor fit]

Compound	activity change, negative = cytotoxicity	Potency
CC(C)n1nc(C(=O)Nc2cccc(S(=O)(=O)NCc3ccco3)c2)c2ccccc2c1=O		active: 20.6 µM
O=S(=O)(NC1CC1)c1ccccc1	inactive: 7.33%	
COc1cc(CN2CCCC(C(=O)c3ccccc3SC)C2)cc(OC)c1 (configuration not stated)		inconclusive: 2.91 µM [cytotoxic, full curve]
O=C(COC(=O)c1ccc2ncsc2c1)Nc1cc(Cl)ccc1F		inconclusive: 8.2 µM [rising, partial curve]
CC1CC(C)CN(c2oc(Cc3ccccc3)nc2C#N)C1 (configuration not stated)		inconclusive: 16.4 µM [cytotoxic, partial curve]
NC(=O)CNC(=O)[C@@H]1CC2(CC(c3ccccc3)=NO2)CN1C(=O)c1ccc(Br)cc1 (some centres not stated)		inconclusive: 29.1 µM [rising, single point]
CCCCCCCCCCCCCCCC(=O)OC(CC(=O)O)C[N+](C)(C)C (configuration not stated)	inactive: -3.6%	
O=C(NCCc1ccccc1)c1cccc([N+](=O)[O-])c1		active: 18.4 µM
Cc1cc(C)cc(NC(=O)C2CCN(c3cc(C)nc4c(-c5ccc(Cl)cc5)c(C)nn34)CC2)c1		inconclusive: 29.1 µM [rising, single point]
O=C(CC12CC3CC(CC(Br)(C3)C1)C2)NC1=NCCS1		inconclusive: 29.1 µM [rising, single point]
CCOc1ncccc1C(=O)OCC(=O)NC1CCCCC1		inconclusive: 1.46 µM [rising, partial curve, poor fit]
C=CCn1c(O)c2ccc(C(=O)N=NC(=O)COc3ccccc3F)cc2c1O	inactive: 7.59%	
O=C(/C=C/c1c(Cl)nc2ccccn12)N1CCCCC1		inconclusive: 11.6 µM [cytotoxic, partial curve]
COc1cc(OC)cc(C(=O)Nc2ccc(-c3nc4ccccc4o3)cc2)c1		inconclusive: 9.2 µM [cytotoxic, partial curve, poor fit]
CCc1ccccc1N(CC(=O)Nc1cccnc1)S(=O)(=O)c1ccccc1		inconclusive: 7.31 µM [cytotoxic, partial curve]
Cc1cccc(CS(=O)(=O)c2ncc(Cl)c(C(=O)Nc3nc4ccc(F)cc4s3)n2)c1		inconclusive: 29.1 µM [cytotoxic, single point]
CCOC(=O)c1cnc(-n2nc(C)cc2C)nc1NCCO		inconclusive: 8.2 µM [cytotoxic, partial curve, poor fit]
NC1=NC(=O)C(Cc2cccc(Cl)c2)S1 (configuration not stated)		inconclusive: 18.4 µM [rising, single point]
COc1ccc(C)cc1S(=O)(=O)N1CCC(C(=O)NCCc2ccccc2)CC1		inconclusive: 20.6 µM [cytotoxic, partial curve, poor fit]
CCOC(=O)c1scc(-c2ccc(C)cc2)c1S(=O)(=O)Nc1cccc(CC)c1	inactive: -9.18%	
CCOCCCNC(=O)CN1C(=O)c2ccccc2Sc2ncccc21	inactive: -5.38%	
Cc1ccc(Sc2ccc(NC(=O)CCN3C(=O)NC4(CCCC4)C3=O)cc2)c(C)c1	inactive: 7.69%	
Cc1cc(C(=O)CSc2nc3ccccc3c(=O)[nH]2)c(C)n1CC1CCCO1 (configuration not stated)		inconclusive: 3.66 µM [cytotoxic, full curve]
Cc1ccc(S(=O)(=O)C2(S(=O)(=O)c3ccc(C)cc3)CCCC2)cc1		inconclusive: 7.31 µM [cytotoxic, partial curve, poor fit]

Compound	activity change, negative = cytotoxicity	Potency
COc1ccc(OC)c(/C=C(\C)C(=O)c2c(C)cc(C)[nH]c2=O)c1	inactive: 18.1%	
NS(=O)(=O)c1ccc(CNC(=O)c2ccncc2)cc1		inconclusive: 29.1 µM [rising, single point]
CCN(CC)C(=O)COc1ccc(C=O)cc1OC		inconclusive: 16.4 µM [rising, partial curve, poor fit]
Cc1nn(C)c(=O)n1-c1ccc(OCc2ccccc2)cc1		inconclusive: 29.1 µM [cytotoxic, single point]
CC(C)(C)c1csc(NC(=O)c2ccc(Br)o2)n1		inconclusive: 4.61 µM [cytotoxic, full curve]
Cc1c(N2C(=O)c3cccc4cccc(c34)C2=O)cnn1C	inactive: -0.995%	
Cn1c(Cn2cnc3ccccc32)nc2ccccc21	inactive: 0%	
CCOC(=O)c1cc(-c2ccccc2)sc1NC(=O)C(C)Sc1nnc(N)s1 (configuration not stated)		active: 2.06 µM
CC(C)C1/C(=N/O)CC(c2ccccc2)NC1c1ccccc1 (configuration not stated)		inconclusive: 20.6 µM [cytotoxic, single point]
COc1ccc(CN(C(=O)CSc2nnc(-c3ccccc3C)o2)c2ccc(F)cc2)cc1	inactive: -0.0252%	
CC(C)(C)NC(=S)NNC(=O)c1ccccc1Cl	inactive: -10.6%	
COc1ccc(OC)c(NC(=O)CN(C)CC(=O)Nc2ccccc2Br)c1		inconclusive: 10.3 µM [cytotoxic, partial curve, poor fit]
CCC(=O)Nc1ccc(N2CCCCC2)c(C(=O)Nc2ccccc2C)c1		active: 11.6 µM
COc1ccc(C(=O)C2CCN(C(=O)Nc3ccc(C)cc3)CC2)cc1		inconclusive: 8.2 µM [cytotoxic, partial curve]
COc1cccc(N2CCN(c3c(C#N)c(C(F)(F)F)nn3C)CC2)c1		active: 13 µM
C/C=C/COC(=O)c1[nH]c2c(c1C)C(=O)CC(c1ccc(N(C)C)cc1)C2 (configuration not stated)		inconclusive: 23.1 µM [cytotoxic, single point]
CC1(C)C/C(=N\NC(=S)Nc2ccccc2F)c2cc(O)ccc2O1		inconclusive: 20.6 µM [cytotoxic, single point]
O=C(O)CC(NS(=O)(=O)c1ccc(Br)s1)c1ccccc1 (configuration not stated)		inconclusive: 7.31 µM [rising, partial curve, poor fit]
Cc1ccc2nc(CS)[nH]c2c1	inactive: 1.87%	
COc1ccc(CN2CCN(S(=O)(=O)c3ccc(NC(C)=O)cc3)CC2)cc1OC		active: 20.6 µM
Nc1c(-c2nc(-c3ccccc3)cs2)c2ccccn2c1C(=O)c1ccc2c(c1)OCO2		inconclusive: 16.4 µM [cytotoxic, single point]
O=C(N/N=C/c1cc(Br)ccc1O)c1ccccc1Cl		inconclusive: 13 µM [cytotoxic, partial curve]
CCCCCn1c(=O)c2ccccc2n2c(CCl)nnc12		inconclusive: 29.1 µM [cytotoxic, partial curve, poor fit]
CCc1ccc(CN(C)C(=O)c2cc(COc3cc(C)c(Cl)c(C)c3)on2)nc1	inactive: 0%	

Four entries drawn at random from those above, as already listed:
Compound	activity change, negative = cytotoxicity	Potency
CCCCCn1c(=O)c2ccccc2n2c(CCl)nnc12		inconclusive: 29.1 µM [cytotoxic, partial curve, poor fit]
CCOC(=O)c1cc(-c2ccccc2)sc1NC(=O)C(C)Sc1nnc(N)s1 (configuration not stated)		active: 2.06 µM
Cn1c(Cn2cnc3ccccc32)nc2ccccc21	inactive: 0%	
COc1ccc(C(=O)C2CCN(C(=O)Nc3ccc(C)cc3)CC2)cc1		inconclusive: 8.2 µM [cytotoxic, partial curve]
